# Hit rate of the full screen: of about 1,400 compounds, fewer than 10 were called active.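 Rule for the calls: active = fluorescence-lowering compounds whose fitted half-maximal concentration is at or below ten times the highest valid dose tested; inconclusive = flat curve at 30 to 70% inhibition, or poor fit; inactive = the rest.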 Some of the results follow.
# By UniProt entry, the sequences of proteins in these tests, tags left out. Where a name states a change or a piece, a line headed by the entry shows the natural chain unless it says otherwise.
# UniProt O15379: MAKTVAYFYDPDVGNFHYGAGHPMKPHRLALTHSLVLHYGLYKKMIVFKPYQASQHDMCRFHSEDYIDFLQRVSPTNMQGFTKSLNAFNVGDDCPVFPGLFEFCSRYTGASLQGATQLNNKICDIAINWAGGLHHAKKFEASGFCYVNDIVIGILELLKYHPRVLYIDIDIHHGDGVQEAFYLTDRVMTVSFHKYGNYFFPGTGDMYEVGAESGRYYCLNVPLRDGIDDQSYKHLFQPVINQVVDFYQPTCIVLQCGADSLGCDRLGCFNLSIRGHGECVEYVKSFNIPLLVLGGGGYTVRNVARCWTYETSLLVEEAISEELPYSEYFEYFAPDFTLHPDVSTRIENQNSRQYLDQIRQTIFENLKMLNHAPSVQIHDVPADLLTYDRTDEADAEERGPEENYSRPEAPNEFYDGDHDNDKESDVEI
# Biological target: Histone deacetylase 3 (Homo sapiens) (UniProt O15379)
# Assay: HDAC3 deacetylase inhibitors, dose response, counter-screen for JMJD2C/GASC1 demethylase inhibitor project, biochemical, fluorescence, cherry-picked samples (AID 485318);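 note: enzyme preincubated with compound before substrate and trypsin were added; 0% = neutral control wells and -100% = SAHA positive control wells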
# Settings: recombinant HDAC3, fluorogenic peptide/trypsin coupled; at 12 µM (top of the series)
row,SMILES,"activity change, negative = inhibition"
1,O=S(=O)(NCCSCc1ccc(Cl)c(Cl)c1)c1ccc2c(c1)OCCO2,inactive: 0.904%
2,O=C(CCc1ccccc1)c1ccc2c(c1)OCCCO2,inactive: -0.39%
3,COc1ccc(NC(=O)O/N=C/c2ccccc2)cc1,inactive: 0.577%
4,CN(C)c1nc(C(=O)Nc2ccccc2)nc(N(C)C)n1,inactive: 0.331%
5,O=C(N/N=C/c1cc([N+](=O)[O-])cc([N+](=O)[O-])c1O)/C(=C\c1cccs1)NC(=O)c1ccccc1,inactive: -0.379%
6,Cc1onc(-c2ccccc2)c1C(=O)Nc1c(C)n(C)n(-c2ccccc2)c1=O,inactive: 0.51%
7,O=C(Nc1ccccn1)c1ccc(C(=O)c2ccccc2)cc1,inactive: -0.657%
8,CCOC(=O)c1sc2nc(N3CCOCC3)c3c(c2c1N)CCN(Cc1ccccc1)C3,inactive: 0.412%
9,Nc1cccc(C(=O)Nc2ccco2)c1,inactive: 0.108%
10,CC(=O)OCC1OC(OC2C[C@]3(C)C(CC(O)C4C([C@](C)(CCC=C(C)C)OC5OC(CO)C(O)C(O)C5O)CC[C@]43C)[C@@]3(C)CCC(O)C(C)(C)C23)C(O[C@@H]2OC(C)C(O)C(O)C2O)C(O)C1O (some centres undefined),inactive: -0.13%
11,CN(C)c1ccc(C(=O)OCC(=O)N2CCCC2)cc1,inactive: 0.251%
12,COc1ccc(N(CC(=O)Nc2ccc(S(=O)(=O)N3CCCC3)cc2)S(C)(=O)=O)cc1OC,inactive: 0.611%
13,Cc1cccc(NC(=O)CSc2cccc3cccnc23)c1,inactive: 0.577%
14,Cc1occc1-c1nnc(SCC(=O)c2cc3ccccc3oc2=O)o1,inactive: 1.24%
15,COc1ccc(OC)c(C2/C(=C(\O)c3ccc(OC)c(Cl)c3)C(=O)C(=O)N2CCN(C)C)c1 (centres undefined),inactive: 0.17%
16,O=[N+]([O-])c1ccc(/C=[N+](\[O-])[C@@H]2CCCC[C@@H]2/[N+]([O-])=C/c2ccc([N+](=O)[O-])o2)o1,inactive: 0.378%
17,Cc1ccccc1-n1nc(C)c2cc(C(=O)N3CCN(S(=O)(=O)c4ccc(F)cc4)CC3)sc21,inactive: -0.325%
18,CC(=O)c1c(C(C)=O)c(C)n(NC(=O)c2ccncc2)c1C,inactive: 0.563%
19,Cc1ccc(Nc2nc3nonc3nc2N(C)C)cc1,inactive: 0.249%
20,CC[C@]12c3[nH]c4ccccc4c3CCN1C(=O)C(CC(=O)NCCCOC)C[C@@H]2C(=O)N1CCN(C(=O)c2ccco2)CC1 (some centres undefined),inactive: 0.706%
21,COc1ccc2c(C(=O)CN3CCN(c4ccccc4)CC3)c[nH]c2c1,inactive: 0.364%
22,O=C(COC(=O)CCC(=O)c1cccs1)Nc1ccc(S(=O)(=O)N2CCOCC2)cc1,inactive: -0.226%
23,COc1ccc(/C=C2\Sc3ccc(C(=O)N4CCCC4)cc3N(C)C2=O)cc1OC,inactive: 0.723%

# Structures above with a Cl atom (two):
row,SMILES,"activity change, negative = inhibition"
1,O=S(=O)(NCCSCc1ccc(Cl)c(Cl)c1)c1ccc2c(c1)OCCO2,inactive: 0.904%
15,COc1ccc(OC)c(C2/C(=C(\O)c3ccc(OC)c(Cl)c3)C(=O)C(=O)N2CCN(C)C)c1 (centres undefined),inactive: 0.17%

# Among those listed so far, these have an NH in an aromatic ring.
row,SMILES,"activity change, negative = inhibition"
20,CC[C@]12c3[nH]c4ccccc4c3CCN1C(=O)C(CC(=O)NCCCOC)C[C@@H]2C(=O)N1CCN(C(=O)c2ccco2)CC1 (some centres undefined),inactive: 0.706%
21,COc1ccc2c(C(=O)CN3CCN(c4ccccc4)CC3)c[nH]c2c1,inactive: 0.364%

# Next compounds:

row,SMILES,"activity change, negative = inhibition"
1,CCOc1ccccc1Nc1nc2ccccc2n2cnnc12,inactive: -0.135%
2,Cc1cc(Cl)ccc1OCC(=O)N1CCCCC1,inactive: 0.0312%
3,COc1ccc(-c2n[nH]c(=S)n2C2CCCCC2)cc1,inactive: 0.0074%
4,Nc1nc(C2CC(=O)OC23CCCCC3)cs1 (centres undefined),inactive: -1.75%
5,COc1cc(/C=N/N2CCN(c3ccccc3OC)CC2)ccc1O,inactive: 0.524%
6,CSc1nnnn1CCn1nnnc1SC,inactive: -0.14%
7,COc1ccccc1Cc1nnc(NC(=O)C2CCN(C(=O)c3ccco3)CC2)s1,inactive: 0.202%
8,CC1(C)CC2(CC(C)(C)N1)OC(=O)N1CCc3ccccc3C12C (centres undefined),inactive: 0.0279%
9,CC(C)(C)c1ccc(S(=O)(=O)NCc2ccc(C(=O)N3CCCC3)cc2)cc1,inactive: 0.701%
10,N#CCCCCN1c2cccc3cccc(c23)S1(=O)=O,inactive: 0.617%
11,COc1ccc(NC(=O)N(C)C[C@H]2Oc3c(NS(=O)(=O)c4cccs4)cccc3C(=O)N([C@H](C)CO)C[C@@H]2C)cc1,inactive: 0.309%
12,CCCn1c2ccccc2c2nnc(SCC(=O)Nc3c(C)n(C)n(-c4ccccc4)c3=O)nc21,inactive: -0.294%
13,COc1ccc(OCC(=O)N/N=C/C(C)=C/c2ccco2)c(Br)c1,inactive: 0.0801%
14,O=C(O)c1ccc2c(c1)nnn2C1CCCCC1,inactive: 0.854%
15,COC(=O)C1CC(O)CN1C(=O)NC1CCCCC1 (centres undefined),inactive: -0.391%
16,Cc1cc(Cl)ccc1OCC(=O)NCCCN1CCOCC1,inactive: 0.459%
17,COc1ccc(C(=O)Nc2ncc3c(n2)CC(c2ccco2)CC3=O)cc1 (centres undefined),inactive: -0.124%
18,c1ccc(-c2csc(-n3cccn3)n2)cc1,inactive: 0.0513%
19,CCCn1c(SCC(=O)Nc2c(C)cccc2CC)nnc1C(C)C,inactive: -0.111%
20,COc1cccc(S(=O)(=O)Nc2cccc(C(=O)N3CCCCCC3)c2)c1,inactive: 0.765%
21,O=C(NNC(=O)c1ccc(SCC2CCCO2)c([N+](=O)[O-])c1)c1ccc(Cl)c([N+](=O)[O-])c1 (centres undefined),inactive: 0.342%
22,COc1ccc(NC(=O)NC(C)c2ccc3c(c2)OCO3)c(OC)c1 (centres undefined),inactive: -0.749%
23,O=C(CN1C(=O)NC2(CCOc3ccccc32)C1=O)c1ccc[nH]1 (centres undefined),inactive: 0.405%

row,SMILES,"activity change, negative = inhibition"
1,CC(C)CN(C(=O)c1ccc(N2CCCC2=O)cc1)c1c(N)n(Cc2ccccc2)c(=O)[nH]c1=O,inactive: 0.575%
2,O=c1cc(NC2CCCCCC2)[nH]c(=O)[nH]1,inactive: 1.3%
3,CC(C)=CCN1CCN(Cc2cn[nH]c2C2CCCCC2)CC1CCO (centres undefined),inactive: -0.0508%
4,COc1ccc(CCC(=O)Nc2sccc2C#N)cc1,inactive: 0.697%
5,O=C(O)CCC(=O)Nc1nc2nc(-c3ccccc3)cc(-c3ccccc3)n2n1,inactive: 0.485%
6,O=C(Nc1ccc(Cl)cc1)N1CCN(c2ccccc2)CC1,inactive: 0.39%
7,COc1ccc(CCN2C(=O)CC(NNC(=O)c3ccccc3Br)C2=O)cc1 (centres undefined),inactive: 0.241%
8,CNC[C@H]1Oc2c(NS(=O)(=O)c3cccs3)cccc2C(=O)N([C@H](C)CO)C[C@@H]1C,inactive: 0.325%
9,Cc1ccccc1CN1C(=O)C(O)(CC(=O)c2ccncc2)c2ccccc21 (centres undefined),inactive: 0.426%
10,CC(OC(=O)c1ccc([N+](=O)[O-])s1)C(=O)Nc1ncc(Cl)cc1Cl (centres undefined),inactive: 0.0687%
11,CCOC(=O)c1c(C)[nH]c(C(=O)CN2CCOCC2)c1C,inactive: 0.0897%
12,O=C(NCCCN1CCCC1=O)c1cc(-c2cccnc2)nc2ccc(Cl)cc12,inactive: 0.423%
13,Cn1c(=O)n(C)c2cc(S(=O)(=O)N3CCOCC3)ccc21,inactive: 1.24%
14,CCOC(=O)Cc1csc(NC(=O)COc2cccc(C)c2)n1,inactive: 0.939%
15,CS(=O)(=O)N(CCc1ccccc1)CC(=O)NCC1CCCO1 (centres undefined),inactive: 0.562%
16,Cc1cnn(C(=O)c2ccccc2Br)c1,inactive: 0.354%
17,CC1CCN(C(=O)CSc2nnc(CNC(=O)c3c(F)cccc3F)o2)CC1,inactive: -0.34%
18,CCn1c(=O)c(C(=O)CN2c3ccccc3CC2C)c(N)n(Cc2ccccc2)c1=O (centres undefined),inactive: 0.906%
19,Cn1c2ccccc2c(=O)c2ccc(NCCc3cccs3)cc21,inactive: 0.689%
20,COc1cccc(C(c2nnnn2CCc2ccccc2)N2CCN(c3ccccc3)CC2)c1OC (centres undefined),inactive: -0.0474%
21,Cc1ccc(CNC(=O)Cc2ccc(-c3ccccc3)cc2)cc1,inactive: -0.612%
22,CC(=O)Nc1ccc2c(c1)C(C)(C)C(C)N2C (centres undefined),inactive: -1.19%
23,CS(=O)(=O)NC1c2cccc3cccc(c23)C1Sc1nncn1/N=C/c1ccco1 (centres undefined),inactive: 0.4%

row,SMILES,"activity change, negative = inhibition"
1,N#CC(C(=O)NCCc1ccccc1)c1nc2ccccc2nc1N1CCOCC1 (centres undefined),inactive: -0.358%
2,Fc1ccccc1OCCCCn1cncn1,inactive: -0.561%
3,CCCCC1CCC(C(=O)N(CC(C)C)c2c(N)n(Cc3ccccc3)c(=O)[nH]c2=O)CC1 (centres undefined),inactive: 0.64%
4,CCc1ccc(-c2cc(C)no2)cc1S(=O)(=O)NCCc1ccc(OC)c(OC)c1,inactive: 1.04%
5,Cn1c(=O)c2c(ncn2CCN(CCO)Cc2ccccc2)n(C)c1=O,inactive: -0.278%
6,CCOC(=O)c1c(C)n(C)c2ccc(O)c(S(=O)(=O)c3ccccc3)c12,inactive: 0.00557%
7,O=C(/C=C/c1cc([N+](=O)[O-])ccc1OC(F)F)Nc1ccc(OC(F)F)cc1,inactive: -0.338%
8,COC(=O)C1=C(C(=O)OC)SC(=C2C(=S)C(C)(C)N(C(=O)C(C)C)c3ccccc32)S1,inactive: -0.163%
9,COC(=O)CNS(=O)(=O)c1ccc(C)cc1,inactive: -0.826%
10,Cc1ccccc1NC(=O)c1c(F)c(F)c(F)c(F)c1F,inactive: 0.457%
11,CN(C(=O)c1ccccn1)c1nnc(-c2ccccn2)s1,inactive: -0.4%
12,CCOc1ccc(-c2nc(CSCC(=O)NC3CCCc4ccccc43)c(C)o2)cc1 (centres undefined),inactive: 0.296%
13,S=c1[nH]nc(COc2ccccc2)n1/N=C/c1ccccn1,inactive: 0.592%
14,CCCn1nnnc1SCC(=O)NNC(=O)c1ccco1,inactive: 0.361%
15,COCCCNC(=O)c1ccc2c(c1)CCN2S(C)(=O)=O,inactive: -0.279%
16,Cc1cccc(NC(=O)C2CCN(S(=O)(=O)c3cccc4nsnc34)CC2)n1,inactive: 0.00374%
17,C=CCNC(=O)c1ccc(S(=O)(=O)CC)c(Cl)c1Cl,inactive: 0.0672%
18,CN(c1cccc(Cl)c1)S(=O)(=O)c1cccc(C(=O)Nc2ccc3c(c2)CCC3)c1,inactive: -0.407%
19,COCCCn1c(SCC(=O)NCc2ccco2)nc2sc3c(c2c1=O)CCC3,inactive: 0.159%
20,O=c1ccc(=O)n2n1CC(O)C2,inactive: 0.0396%

# — PubChem BioAssay AID485318 (Broad Institute, 2010)
